Reference: patent US12629347B2, “Compounds and dosage regimen for use in the prevention or treatment of chronic inflammatory and/or autoimmune diseases” (Immunic AG, priority 2017, dated 2026)

Test: Phase I SAD study: time dependent change of uric acid levels in blood
Type: in vivo, human
Conditions: 30 mg single dose
Procedure: In this example, also the time dependent change of uric acid levels in blood were tested. At 30 mg single dose, the plasma levels of uric acid drop after 4 hours to a minimum and go back to baseline levels after 96 hours.

For `COc1cccc(-c2ccc(NC(=O)C3=C(C(=O)O)CCC3)c(F)c2)c1` [IMU-838], the “time at which plasma levels of uric acid drop to a minimum” value was 4 h and the “time at which plasma levels of uric acid go back to baseline” value was 96 h.
